# Laboratory results from patent US10584146B2, “Heme peptide materials for anti-inflammatory regenerative nanobiomedicine” (UCHICAGO ARGONNE, LLC, priority 2016, dated 2020).
# “And” between values parts separate entries of the source, which are not always exact repeats. Equal entries are not always repeated.
# Test: Carbon monoxide binding, FTIR CO stretching frequency
# Type: physicochemical
# Conditions: for CO stretching frequency νCO: Hemin 100 μM, Peptide 1 mM
# Description: Carbon Monoxide Binding. The heme ferrous state was obtained through chemical reduction by add-ing 5 μL of a concentrated sodium dithionite (Sigma-Aldrich) solution (100 mg/mL) into a 1000 μM peptide/100 μM hemin solution (300 μL) in an eppendorf tube. All samples were equilibrated and han-dled in an inert, nitrogen atmosphere (Plas Labs Inc. 830 Series Compact Glove Box). Carbon monoxide (99.99%, Airgas) was added directly through the solution in the eppendorf tube for 30 seconds. 10 μL of the solution was dropcast onto a CaF2 plate where a CO(g) was gently blown over the droplet resulting in a thin film of the PAHeme material. The samples were than analyzed by FTIR spectroscopy (Thermo Scientific, Nicolet 6700 FT-IR spectrophotometer). The samples were stable against oxidation during the course of the experiments.
# [1] = pH=7 (micelles; AAHeme forms fibers), ferrous heme
Substance,"CO stretching frequency νCO (fibers, pH=10.5, ferrous heme) [cm⁻¹]",CO stretching frequency νCO [1],"ΔνCO, change from micelles to fibers (micelles vs fibers) [cm⁻¹]"
"c16-HHL3K3-CO2H (HHLLLKKK; N-terminal palmitoyl; heme) [HHHeme, XXHeme denotes the holo state]",1961,1963 cm⁻¹,
"c16-AAL3K3-CO2H (AALLLKKK; N-terminal palmitoyl; heme) [AAHeme, control peptide amphiphile without heme coordination site; XXHeme denotes the holo state (coordinated heme)]",1949,1951 cm⁻¹ and 1970 cm⁻¹,
"c16-MHL3K3-CO2H (MHLLLKKK; N-terminal palmitoyl; heme) [MHHeme, XXHeme denotes the holo state]",1957,1969 cm⁻¹,12
"c16-AHL3K3-CO2H (AHLLLKKK; N-terminal palmitoyl; heme) [AHHeme, XXHeme denotes the holo state]",1970,1967 cm⁻¹,
